The results in this text go back to paper PMC3441222.

Protein sequences, listed by entry. Tags and fused reporters are not part of them.
UniProt Q9VSL8: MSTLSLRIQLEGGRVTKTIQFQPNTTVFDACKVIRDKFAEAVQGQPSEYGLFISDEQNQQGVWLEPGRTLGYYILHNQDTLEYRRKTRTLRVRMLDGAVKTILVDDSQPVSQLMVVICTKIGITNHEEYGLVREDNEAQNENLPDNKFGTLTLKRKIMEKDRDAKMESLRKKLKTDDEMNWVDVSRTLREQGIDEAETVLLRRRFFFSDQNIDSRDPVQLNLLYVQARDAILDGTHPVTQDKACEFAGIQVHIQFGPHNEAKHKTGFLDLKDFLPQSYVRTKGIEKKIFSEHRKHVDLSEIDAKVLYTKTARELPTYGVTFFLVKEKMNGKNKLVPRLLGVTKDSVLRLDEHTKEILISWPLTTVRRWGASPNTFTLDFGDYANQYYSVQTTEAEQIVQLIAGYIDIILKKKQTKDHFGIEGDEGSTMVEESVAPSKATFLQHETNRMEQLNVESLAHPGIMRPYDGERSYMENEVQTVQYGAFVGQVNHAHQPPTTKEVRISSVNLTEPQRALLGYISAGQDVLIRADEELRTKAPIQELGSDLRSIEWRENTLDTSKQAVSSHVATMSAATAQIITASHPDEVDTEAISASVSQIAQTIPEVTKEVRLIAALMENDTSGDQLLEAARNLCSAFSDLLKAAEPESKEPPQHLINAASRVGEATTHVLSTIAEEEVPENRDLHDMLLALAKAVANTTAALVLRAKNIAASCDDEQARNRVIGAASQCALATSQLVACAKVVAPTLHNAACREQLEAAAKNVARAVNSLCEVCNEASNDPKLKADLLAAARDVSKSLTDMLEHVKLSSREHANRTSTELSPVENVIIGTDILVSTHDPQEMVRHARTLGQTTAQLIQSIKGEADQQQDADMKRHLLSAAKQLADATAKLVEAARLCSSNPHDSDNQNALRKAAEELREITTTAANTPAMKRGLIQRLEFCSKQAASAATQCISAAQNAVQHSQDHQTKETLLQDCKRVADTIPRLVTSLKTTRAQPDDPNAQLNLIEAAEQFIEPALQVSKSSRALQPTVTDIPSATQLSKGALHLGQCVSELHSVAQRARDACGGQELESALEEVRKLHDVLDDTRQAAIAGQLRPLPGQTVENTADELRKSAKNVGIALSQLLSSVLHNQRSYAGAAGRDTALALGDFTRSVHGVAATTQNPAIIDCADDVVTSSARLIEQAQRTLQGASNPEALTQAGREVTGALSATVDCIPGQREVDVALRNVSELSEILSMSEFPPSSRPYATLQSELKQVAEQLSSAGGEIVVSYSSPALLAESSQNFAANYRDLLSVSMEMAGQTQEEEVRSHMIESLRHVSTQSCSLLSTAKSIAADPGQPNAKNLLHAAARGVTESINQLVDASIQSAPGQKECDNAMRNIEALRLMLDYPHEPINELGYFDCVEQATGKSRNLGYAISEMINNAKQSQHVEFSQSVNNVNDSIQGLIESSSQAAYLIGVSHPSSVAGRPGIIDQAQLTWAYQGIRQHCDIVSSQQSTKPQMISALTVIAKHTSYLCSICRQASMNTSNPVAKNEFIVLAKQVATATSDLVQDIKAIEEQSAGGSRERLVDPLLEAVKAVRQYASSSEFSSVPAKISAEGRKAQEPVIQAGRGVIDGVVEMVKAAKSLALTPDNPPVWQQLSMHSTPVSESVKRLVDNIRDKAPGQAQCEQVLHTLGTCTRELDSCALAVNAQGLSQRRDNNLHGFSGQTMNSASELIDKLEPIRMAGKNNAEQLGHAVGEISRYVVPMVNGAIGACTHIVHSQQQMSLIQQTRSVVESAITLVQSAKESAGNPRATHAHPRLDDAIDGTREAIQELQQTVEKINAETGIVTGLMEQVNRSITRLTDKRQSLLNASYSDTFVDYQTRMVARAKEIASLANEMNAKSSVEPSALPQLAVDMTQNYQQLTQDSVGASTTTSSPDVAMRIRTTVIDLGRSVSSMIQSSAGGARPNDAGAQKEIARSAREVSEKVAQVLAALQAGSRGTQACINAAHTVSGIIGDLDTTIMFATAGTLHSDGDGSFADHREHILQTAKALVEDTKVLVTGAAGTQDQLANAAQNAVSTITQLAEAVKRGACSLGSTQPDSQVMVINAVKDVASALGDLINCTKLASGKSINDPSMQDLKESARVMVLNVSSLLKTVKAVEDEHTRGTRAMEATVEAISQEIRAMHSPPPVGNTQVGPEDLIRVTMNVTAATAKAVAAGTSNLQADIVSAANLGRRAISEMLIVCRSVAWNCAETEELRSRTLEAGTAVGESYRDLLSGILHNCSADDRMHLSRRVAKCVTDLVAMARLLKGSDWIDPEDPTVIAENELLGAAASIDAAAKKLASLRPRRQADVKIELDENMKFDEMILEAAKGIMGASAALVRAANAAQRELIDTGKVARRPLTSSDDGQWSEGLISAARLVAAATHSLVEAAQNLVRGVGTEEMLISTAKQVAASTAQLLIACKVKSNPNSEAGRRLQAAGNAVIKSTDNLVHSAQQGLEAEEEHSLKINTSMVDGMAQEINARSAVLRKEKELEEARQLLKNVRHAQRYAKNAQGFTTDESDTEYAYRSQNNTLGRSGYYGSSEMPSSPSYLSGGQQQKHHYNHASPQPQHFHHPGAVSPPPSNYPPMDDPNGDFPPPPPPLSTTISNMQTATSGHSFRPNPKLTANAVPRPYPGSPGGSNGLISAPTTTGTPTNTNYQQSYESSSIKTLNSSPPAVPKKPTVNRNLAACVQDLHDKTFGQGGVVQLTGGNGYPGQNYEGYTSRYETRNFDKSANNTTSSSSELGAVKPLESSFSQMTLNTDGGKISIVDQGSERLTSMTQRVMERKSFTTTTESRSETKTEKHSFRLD

In the assay the target is talin (Drosophila melanogaster (endogenous in Drosophila extracts)) (UniProt Q9VSL8). Put plainly: co-IP; Drosophila extract immunoprecipitated with 40 ug anti-talin antibody adsorbed to Protein A Sepharose; blot stained with anti-CalpB; lysis buffer 50 mM Tris pH 7.5, 150 mM NaCl, 10 mM EDTA, 0.1% Triton X-100, 0.01% beta-mercaptoethanol, protease inhibitors.

These are yes or no findings as the source states them, for the method shown. In cells and extracts the contact can be indirect. Some results given as binding are weak or reduced against the parent protein; the word gives no strength.

B1: CalpB (enzyme, UniProt Q9VT65 1-925)
chain: MYGIDNYPKNYHASGIGLVNLAALGYSKNEVSGGNEGGGAPKPKAGLYPSLPYPSSESVGGMPYVVKQTSHAQNASYAGPTMGMGMPVPEAPSAPAPYPSATPYPGSGLYPSLPSANVSSLPYPTAPMAPYPTGMPYPTGMPQPNLPYPAAPLAPYPSAMPGLPGMPMPYAPMPTSPAPQHNIGFPALPYPTAPPPESAPTQEEEPSVGVAELSFTSVKVPENQNMFWMGRKATSARQNSVSKGDFQSLRDSCLANGTMFEDPDFPATNASLMYSRRPDRYYEWLRPGDIADDPQFFVEGYSRFDVQQGELGDCWLLAAAANLTQDSTLFFRVIPPDQDFQENYAGIFHFKFWQYGKWVEVVIDDRLPTYNGELIYMHSTEKNEFWSALLEKAYAKLHGSYEALKGGTTCEAMEDFTGGVTEWYDIKEAPPNLFSIMMKAAERGSMMGCSLEPDPHVLEAETPQGLIRGHAYSITKVCLMDISTPNRQGKLPMIRMRNPWGNDAEWSGPWSDSSPEWRFIPEHTKEEIGLNFDRDGEFWMSFQDFLNHFDRVEICNLSPDSLTEDQQHSSRRKWEMSMFEGEWTSGVTAGGCRNFLETFWHNPQYIISLEDPDDEDDDGKCTAIVALMQKNRRSKRNVGIDCLTIGFAIYHLTDRDMQVKPQGLNFFKYRASVARSPHFINTREVCARFKLPPGHYLIVPSTFDPNEEGEFIIRVFSETRNNMEENDDEVGFGETDDRIAPSLPPPTPKEEDDPQRIALRRLFDSVAGSDEEVDWQELKRILDHSMRDVMVGSDGFSKDAVRSMVAMLDKDRSGRLGFEEFEALLTDIAKWRAVFKLYDTRRTGSIDGFHLRGALNSAGYHLNNRLLNALAHRYGSREGQIPFDDFLMCAIKVRTFIEMFRERDTDNSDTAFFNLDDWLERTIYS
On to B1, for which the binding entry was “binds”.
